Experimental data reported in patent publication US20070065439A1.

Assays:
IL-1β mutated at K103 = assay: binding to site-directed IL-1β mutant; X = abrogation of binding
IL-1β mutated at E105 = assay: as above

B1: 5.36.1 (antibody, human IgG4, V domains shown)
VH: QVQLQQSGPGLVKPSQTLSLTCAISGDSVSSNSAAWNWIRQSPSRGLEWLGRTYYRSKWYNDYAVSVKSRITINPDTSKNQFSLQLNSVTPEDTAVYYCAREEQQLVRYYYYYGMDVWGQGTTVTVS
VL: DIVMTQTPLSLSVTPGQPASISCKSSQSLLHSDGRTYLYWYLQRPGQPPQLLIYEASYRFSGVPDRFSGSGSGTDFTLKISRVEAEDVGIYYCMQSIQLPRTFGQGTRLEIK
B1 was tested, and the binding (IL-1β mutated at K103) was “no binding” and the binding (IL-1β mutated at E105) was “no binding”.

No constants are given. Whether binding was seen depends on the method and setting.
